Reference: the supplement of paper PMC10849652
Some of the results follow.

By UniProt entry, the sequences of proteins in these tests, tags left out. Where a name states a change or a piece, a line headed by the entry shows the natural chain unless it says otherwise.
UniProt Q93050, whole entry, looked up: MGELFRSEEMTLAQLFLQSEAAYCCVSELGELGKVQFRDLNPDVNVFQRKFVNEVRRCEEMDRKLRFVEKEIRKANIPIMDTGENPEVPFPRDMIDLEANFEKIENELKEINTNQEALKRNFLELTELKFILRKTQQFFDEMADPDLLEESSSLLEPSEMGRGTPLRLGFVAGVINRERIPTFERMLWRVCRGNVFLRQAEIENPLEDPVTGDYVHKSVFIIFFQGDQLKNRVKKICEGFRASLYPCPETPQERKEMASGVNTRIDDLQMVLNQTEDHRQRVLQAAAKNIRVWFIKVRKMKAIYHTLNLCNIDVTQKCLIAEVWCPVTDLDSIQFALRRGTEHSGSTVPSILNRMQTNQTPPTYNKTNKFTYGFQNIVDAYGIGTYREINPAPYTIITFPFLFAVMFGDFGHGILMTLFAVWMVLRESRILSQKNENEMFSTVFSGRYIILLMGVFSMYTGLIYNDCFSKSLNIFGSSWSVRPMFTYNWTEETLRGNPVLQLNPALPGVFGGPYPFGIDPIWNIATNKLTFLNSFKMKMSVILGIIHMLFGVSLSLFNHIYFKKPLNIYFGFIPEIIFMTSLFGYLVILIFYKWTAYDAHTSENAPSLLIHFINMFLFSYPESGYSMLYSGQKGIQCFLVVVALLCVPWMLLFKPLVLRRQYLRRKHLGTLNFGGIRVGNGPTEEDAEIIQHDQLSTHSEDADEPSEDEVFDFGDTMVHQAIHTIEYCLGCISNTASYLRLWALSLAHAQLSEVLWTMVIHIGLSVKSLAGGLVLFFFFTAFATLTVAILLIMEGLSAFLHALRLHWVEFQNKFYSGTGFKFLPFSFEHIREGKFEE
UniProt Q6VMQ6: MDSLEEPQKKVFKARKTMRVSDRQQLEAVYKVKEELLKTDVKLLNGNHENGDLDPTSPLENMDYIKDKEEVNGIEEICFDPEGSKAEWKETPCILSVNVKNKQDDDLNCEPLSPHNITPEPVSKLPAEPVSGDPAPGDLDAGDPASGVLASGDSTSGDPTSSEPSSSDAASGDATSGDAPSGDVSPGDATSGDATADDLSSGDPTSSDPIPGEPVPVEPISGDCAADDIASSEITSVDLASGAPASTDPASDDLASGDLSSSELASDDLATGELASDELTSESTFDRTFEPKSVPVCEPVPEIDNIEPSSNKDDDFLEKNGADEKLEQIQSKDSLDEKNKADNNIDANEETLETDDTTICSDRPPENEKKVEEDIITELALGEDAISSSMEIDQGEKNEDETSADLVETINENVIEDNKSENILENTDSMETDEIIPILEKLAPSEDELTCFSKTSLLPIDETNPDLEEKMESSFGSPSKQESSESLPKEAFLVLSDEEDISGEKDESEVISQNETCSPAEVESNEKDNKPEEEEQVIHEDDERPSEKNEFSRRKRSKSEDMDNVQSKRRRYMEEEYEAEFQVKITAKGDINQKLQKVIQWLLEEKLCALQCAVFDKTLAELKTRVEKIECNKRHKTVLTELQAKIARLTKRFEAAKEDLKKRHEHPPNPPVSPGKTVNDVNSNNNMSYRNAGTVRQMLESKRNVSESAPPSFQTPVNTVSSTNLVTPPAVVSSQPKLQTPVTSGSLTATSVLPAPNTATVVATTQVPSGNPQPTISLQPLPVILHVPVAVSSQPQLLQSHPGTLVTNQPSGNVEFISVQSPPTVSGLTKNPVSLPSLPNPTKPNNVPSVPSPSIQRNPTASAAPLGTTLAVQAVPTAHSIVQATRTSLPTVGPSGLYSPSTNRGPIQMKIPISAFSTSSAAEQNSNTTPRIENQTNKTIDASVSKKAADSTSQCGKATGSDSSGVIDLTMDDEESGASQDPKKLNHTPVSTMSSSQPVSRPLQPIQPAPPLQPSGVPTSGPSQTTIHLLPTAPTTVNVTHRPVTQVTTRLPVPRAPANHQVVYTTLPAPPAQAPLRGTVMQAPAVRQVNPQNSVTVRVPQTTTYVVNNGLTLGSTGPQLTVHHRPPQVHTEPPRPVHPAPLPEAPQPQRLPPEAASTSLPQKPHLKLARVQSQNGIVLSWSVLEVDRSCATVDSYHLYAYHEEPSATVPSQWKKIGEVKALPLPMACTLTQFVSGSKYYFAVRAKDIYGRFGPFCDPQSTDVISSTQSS
UniProt O75947: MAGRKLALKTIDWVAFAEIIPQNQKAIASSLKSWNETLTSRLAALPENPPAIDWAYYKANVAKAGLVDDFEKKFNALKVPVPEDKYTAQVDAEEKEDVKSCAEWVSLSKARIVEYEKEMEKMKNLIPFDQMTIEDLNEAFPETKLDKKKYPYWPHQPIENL
UniProt P56381: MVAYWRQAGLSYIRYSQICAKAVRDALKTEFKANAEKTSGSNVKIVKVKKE
UniProt P21281, whole entry, looked up: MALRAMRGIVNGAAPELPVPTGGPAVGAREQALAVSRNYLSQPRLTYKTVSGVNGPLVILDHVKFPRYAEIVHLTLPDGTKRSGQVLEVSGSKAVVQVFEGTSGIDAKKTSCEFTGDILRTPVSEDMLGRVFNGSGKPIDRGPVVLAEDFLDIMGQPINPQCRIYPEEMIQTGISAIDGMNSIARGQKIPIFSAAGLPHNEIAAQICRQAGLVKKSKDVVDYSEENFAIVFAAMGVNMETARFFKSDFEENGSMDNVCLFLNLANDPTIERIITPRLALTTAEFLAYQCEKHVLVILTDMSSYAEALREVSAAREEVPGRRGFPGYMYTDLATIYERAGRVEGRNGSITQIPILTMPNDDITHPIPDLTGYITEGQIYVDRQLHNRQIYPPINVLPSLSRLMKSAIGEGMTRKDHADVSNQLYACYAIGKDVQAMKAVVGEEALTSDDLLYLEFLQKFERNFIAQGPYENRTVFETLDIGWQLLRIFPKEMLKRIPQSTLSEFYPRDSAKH
UniProt P31939: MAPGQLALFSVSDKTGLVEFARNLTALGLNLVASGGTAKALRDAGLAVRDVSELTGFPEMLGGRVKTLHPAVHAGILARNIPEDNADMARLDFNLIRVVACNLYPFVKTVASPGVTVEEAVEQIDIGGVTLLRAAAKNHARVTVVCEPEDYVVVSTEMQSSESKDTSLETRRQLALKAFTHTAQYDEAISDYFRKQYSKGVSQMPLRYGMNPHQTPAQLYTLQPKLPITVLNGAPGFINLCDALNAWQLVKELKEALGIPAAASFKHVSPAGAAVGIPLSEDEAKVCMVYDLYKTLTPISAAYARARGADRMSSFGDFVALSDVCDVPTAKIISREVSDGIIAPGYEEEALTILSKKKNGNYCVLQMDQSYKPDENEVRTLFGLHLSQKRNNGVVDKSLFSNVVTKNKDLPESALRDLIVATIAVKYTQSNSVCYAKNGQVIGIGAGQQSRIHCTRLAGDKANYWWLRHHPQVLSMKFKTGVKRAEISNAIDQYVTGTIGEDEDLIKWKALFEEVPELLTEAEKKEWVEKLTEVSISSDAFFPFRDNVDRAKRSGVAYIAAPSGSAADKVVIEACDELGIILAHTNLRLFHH
UniProt Q9NQ11: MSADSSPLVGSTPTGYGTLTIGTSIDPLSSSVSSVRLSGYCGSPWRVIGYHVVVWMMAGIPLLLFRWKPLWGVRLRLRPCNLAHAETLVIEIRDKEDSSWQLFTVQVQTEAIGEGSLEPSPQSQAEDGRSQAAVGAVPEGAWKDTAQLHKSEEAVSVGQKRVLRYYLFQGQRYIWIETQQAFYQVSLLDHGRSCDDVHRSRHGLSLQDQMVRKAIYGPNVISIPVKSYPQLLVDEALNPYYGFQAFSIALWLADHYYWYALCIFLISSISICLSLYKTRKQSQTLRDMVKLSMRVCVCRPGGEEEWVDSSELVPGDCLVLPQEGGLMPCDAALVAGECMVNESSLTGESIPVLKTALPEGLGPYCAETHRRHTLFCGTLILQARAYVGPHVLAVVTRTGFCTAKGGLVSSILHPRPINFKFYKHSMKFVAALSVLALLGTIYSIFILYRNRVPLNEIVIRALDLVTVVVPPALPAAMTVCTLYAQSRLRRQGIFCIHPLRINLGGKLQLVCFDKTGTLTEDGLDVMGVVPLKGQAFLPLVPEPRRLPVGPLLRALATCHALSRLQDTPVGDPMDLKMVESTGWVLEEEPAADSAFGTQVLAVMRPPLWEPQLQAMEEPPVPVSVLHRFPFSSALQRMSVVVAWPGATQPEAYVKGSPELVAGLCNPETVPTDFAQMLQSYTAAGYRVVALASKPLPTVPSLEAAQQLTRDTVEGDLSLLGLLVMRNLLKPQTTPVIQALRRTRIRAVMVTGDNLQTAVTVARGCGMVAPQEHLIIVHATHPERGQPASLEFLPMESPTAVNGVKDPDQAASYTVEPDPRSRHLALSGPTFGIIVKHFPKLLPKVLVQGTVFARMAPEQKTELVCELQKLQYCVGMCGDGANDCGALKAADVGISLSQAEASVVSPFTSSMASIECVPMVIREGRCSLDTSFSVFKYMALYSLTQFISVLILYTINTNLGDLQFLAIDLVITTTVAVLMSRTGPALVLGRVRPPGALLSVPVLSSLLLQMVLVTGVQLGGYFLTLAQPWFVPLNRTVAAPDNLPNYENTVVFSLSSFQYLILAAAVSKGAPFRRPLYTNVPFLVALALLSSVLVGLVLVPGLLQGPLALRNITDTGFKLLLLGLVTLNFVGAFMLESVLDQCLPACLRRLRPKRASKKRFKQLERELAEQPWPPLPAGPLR
UniProt Q2TAZ0: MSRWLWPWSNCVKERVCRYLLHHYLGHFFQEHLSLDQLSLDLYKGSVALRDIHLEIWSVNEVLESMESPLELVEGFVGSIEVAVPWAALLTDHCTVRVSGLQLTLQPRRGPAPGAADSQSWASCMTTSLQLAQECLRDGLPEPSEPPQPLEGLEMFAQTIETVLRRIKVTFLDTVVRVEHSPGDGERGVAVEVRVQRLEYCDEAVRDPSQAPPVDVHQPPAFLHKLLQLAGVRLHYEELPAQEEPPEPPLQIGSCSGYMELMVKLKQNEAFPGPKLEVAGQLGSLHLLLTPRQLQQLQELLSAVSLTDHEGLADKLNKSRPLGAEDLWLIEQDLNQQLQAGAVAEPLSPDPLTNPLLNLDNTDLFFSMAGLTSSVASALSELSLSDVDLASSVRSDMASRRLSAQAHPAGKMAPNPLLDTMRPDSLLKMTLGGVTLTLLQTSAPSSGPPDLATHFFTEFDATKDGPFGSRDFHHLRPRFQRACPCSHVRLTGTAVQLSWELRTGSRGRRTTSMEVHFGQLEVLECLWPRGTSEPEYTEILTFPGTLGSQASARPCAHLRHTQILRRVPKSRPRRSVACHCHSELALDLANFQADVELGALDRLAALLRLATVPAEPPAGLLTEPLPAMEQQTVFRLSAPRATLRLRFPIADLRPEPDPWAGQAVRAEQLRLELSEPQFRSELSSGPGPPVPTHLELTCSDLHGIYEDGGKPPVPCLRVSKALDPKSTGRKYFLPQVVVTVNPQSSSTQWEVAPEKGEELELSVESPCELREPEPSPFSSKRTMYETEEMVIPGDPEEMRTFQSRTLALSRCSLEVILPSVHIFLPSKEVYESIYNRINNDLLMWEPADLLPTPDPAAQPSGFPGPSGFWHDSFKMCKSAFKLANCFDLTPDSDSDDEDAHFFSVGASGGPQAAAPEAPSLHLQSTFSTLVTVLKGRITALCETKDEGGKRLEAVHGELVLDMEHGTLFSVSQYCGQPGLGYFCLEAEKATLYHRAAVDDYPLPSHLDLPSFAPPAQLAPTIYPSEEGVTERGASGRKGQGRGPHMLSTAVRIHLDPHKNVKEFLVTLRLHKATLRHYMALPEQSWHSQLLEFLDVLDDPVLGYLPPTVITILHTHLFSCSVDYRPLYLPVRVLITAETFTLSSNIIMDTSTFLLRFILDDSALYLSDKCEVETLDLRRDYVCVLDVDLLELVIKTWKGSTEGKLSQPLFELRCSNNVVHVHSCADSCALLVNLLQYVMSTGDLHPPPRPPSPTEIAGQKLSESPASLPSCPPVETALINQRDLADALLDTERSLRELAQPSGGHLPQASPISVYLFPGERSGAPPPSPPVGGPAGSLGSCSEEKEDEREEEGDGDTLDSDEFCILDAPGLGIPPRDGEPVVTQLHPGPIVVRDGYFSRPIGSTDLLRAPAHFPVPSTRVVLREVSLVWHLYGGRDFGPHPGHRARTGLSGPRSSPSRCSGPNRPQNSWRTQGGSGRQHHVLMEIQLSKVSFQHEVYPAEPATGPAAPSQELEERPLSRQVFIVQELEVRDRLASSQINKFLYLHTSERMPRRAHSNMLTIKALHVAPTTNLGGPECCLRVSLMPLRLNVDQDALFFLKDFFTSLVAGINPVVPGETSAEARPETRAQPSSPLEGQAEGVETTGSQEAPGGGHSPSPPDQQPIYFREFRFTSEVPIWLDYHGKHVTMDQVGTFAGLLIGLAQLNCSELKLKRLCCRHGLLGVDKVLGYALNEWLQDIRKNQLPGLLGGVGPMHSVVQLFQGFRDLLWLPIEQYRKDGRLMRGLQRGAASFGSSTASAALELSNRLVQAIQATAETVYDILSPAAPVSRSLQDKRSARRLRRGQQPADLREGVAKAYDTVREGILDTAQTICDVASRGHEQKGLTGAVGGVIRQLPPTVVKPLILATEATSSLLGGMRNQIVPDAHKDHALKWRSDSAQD

How the values were obtained:
Assay in all cases: log2 fold change, soluble protein after heating vs DMSO (PISA); higher = thermal stabilisation; K562 lysate, 10 uM; active = over 0.2 and 3.5 SD of the protein, either way, in both replicates (recomputed)
erlotinib = compound: C#Cc1cccc(Nc2ncnc3cc(OCCOC)c(OCCOC)cc23)c1 [erlotinib]
In short: (§1)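 To prepare the extract, K562 pellets were dounce-homogenised in PBS pH 7.4 with 1 mM MgCl2, giving crude material at 1 mg/mL protein. This was treated with 10 μM compound for 30 min, then heated in aliquots for 3 min over 48°C-58°C before pooling and addition of NP-40 to 0.5% at 4°C. Centrifugation at 21,000xg for 90 min left soluble protein in the supernatant, which TMTpro 16plex LC-MS/MS quantified with equalised channel sums. Results are log-two fold changes in thermal stability compared with solvent controls, from duplicates.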

[1] = compound: C/C(=N\NC(=O)C1=CC(=CC=C1)S(=O)(=O)N2CCOCC2)/C3=C(C=CC(=C3)Cl)O
In short: as §1

[2] = compound: C1=CC(=CC=C1C2=NC3=C(N2)C=C(C=C3)C(=O)N)OC4=CC=C(C=C4)Cl
In short: as §1

[3] = compound: C1=CC2=C(C=CC(=C2)/C=C\3/C(=O)NC(=NCC4=CC=CS4)S3)N=C1
In short: as §1

[4] = compound: C1=CC2=NC=CN=C2C=C1/C=C/3\C(=O)NC(=O)S3
In short: as §1

[5] = compound: C1=CC=C(C=C1)C2=NC(=C(N2)C3=CC=NC=C3)C4=CC(=C(C=C4)Cl)O
In short: as §1

[6] = compound: C1=CC=C2C(=C1)C3=NNC4=CC=CC(=C43)C2=O
In short: as §1

[7] = compound: C1CCN(C1)C(=O)NC2=CC=CC(=C2)NC3=NC=C(C(=N3)NCCC4=CN=CN4)Br
In short: as §1

[8] = compound: C1CN(CCC1(CC2=CC=C(C=C2)Cl)N)C3=NC=NC4=C3C=CN4
In short: as §1

IRAK-1-4 Inhibitor I = compound: C1COCCN1CCN2C3=CC=CC=C3N=C2NC(=O)C4=CC(=CC=C4)[N+](=O)[O-] [IRAK-1-4 Inhibitor I]
In short: as §1

ibrutinib = compound: C=CC(=O)N1CCC[C@@H](n2nc(-c3ccc(Oc4ccccc4)cc3)c3c(N)ncnc32)C1 [ibrutinib]
In short: as §1

[9] = compound: CC(=O)c1cnc2ccc(-c3cc(Cl)c(O)c(Cl)c3)nc2c1N[C@H]1CC[C@H](CN(C)C)CC1
In short: as §1

ralimetinib = compound: CC(C)(C)Cn1c(N)nc2ccc(-c3[nH]c(C(C)(C)C)nc3-c3ccc(F)cc3)nc21 [ralimetinib]
In short: as §1

[10] = compound: CC(C)(O)CC(=O)NCCn1ccc2ncnc(Nc3ccc(Oc4cccc(C(F)(F)F)c4)c(Cl)c3)c21
In short: as §1

[11] = compound: CC(C)C1=C2N=C(C=C(N2N=C1)NCC3=CC=CC=C3)NCCCCCCN
In short: as §1

[12] = compound: CC1=C(C(CC(=O)N1)C2=CC=C(C=C2)C(F)(F)F)C(=O)NC3=C(C=C4C(=C3)C=NN4)F
In short: as §1

[13] = compound: CC1=C(C2=C(C=C1)C(=O)C3=CC=CC=C3N2CCCN)C
In short: as §1

[14] = compound: CC1=C(C=C(C=C1)NC(=O)C2=CC(=CC=C2)C(C)(C)C#N)NC3=CC4=C(C=C3)N=CN(C4=O)C
In short: as §1

[15] = compound: CC1=C(C=C(C=C1)NC(=O)C2=CC(=CC=C2)N(C)C)NC(=O)C3=CC=C(C=C3)O
In short: as §1

[16] = compound: CC1=CC=C(C=C1)SC2=C3C=C(SC3=CN=C2)C(=O)N
In short: as §1

Measured: log2 fold change

ATP6V0A1 isoform 3 (UniProt Q93050)
inactive: erlotinib -0.011 | [1] -0.013 | [2] 0.036 | [3] -0.025 | [4] 0.018 | [5] 0.026 | [6] -0.031 | [7] -0.017 | [8] -0.028 | IRAK-1-4 Inhibitor I 0.036 | ibrutinib 0.03 | [9] -0.007 | ralimetinib 0.005 | [10] -0.037 | [11] 0.008 | [12] 0.01 | [13] -0.025 | [14] 0.028 | [15] -0.05 | [16] -0.01

ATF7IP isoform 4 (UniProt Q6VMQ6)
inactive: erlotinib 0.012 | [1] -0.013 | [2] 0.063 | [3] 0.032 | [4] -0.035 | [5] 0.054 | [6] -0.007 | [7] -0.063 | [8] 0.023 | IRAK-1-4 Inhibitor I 0.02 | ibrutinib -0.049 | [9] 0.013 | ralimetinib 0.012 | [10] -0.042 | [11] -0.01 | [12] -0.044 | [13] 0.007 | [14] -0.004 | [15] -0.015 | [16] 0.014

ATE1 isoform 2 (UniProt O95260)
inactive: erlotinib -0.022 | [1] -0.01 | [2] 0.002 | [3] -0.063 | [4] 0.027 | [5] 0.007 | [6] 0.021 | [7] 0.054 | [8] 0.013 | IRAK-1-4 Inhibitor I -0.038 | ibrutinib 0.056 | [9] 0.001 | ralimetinib -0.006 | [10] 0.063 | [11] -0.016 | [12] 0.048 | [13] -0.001 | [14] -0.04 | [15] -0.004 | [16] 0.011

ATP5PD (UniProt O75947)
inactive: erlotinib 0.008 | [1] 0.035 | [2] 0 | [3] -0.012 | [4] 0.021 | [5] 0.006 | [6] 0 | [7] 0.048 | [8] 0.064 | IRAK-1-4 Inhibitor I 0.013 | ibrutinib 0.074 | [9] -0.017 | ralimetinib -0.045 | [10] -0.016 | [11] 0.021 | [12] -0.04 | [13] 0.013 | [14] 0.009 | [15] -0.028 | [16] -0.005

ATP5MC2 isoform 2 (UniProt Q06055)
inactive: erlotinib 0.022 | [1] 0.053 | [2] -0.016 | [3] -0.013 | [4] -0.027 | [5] 0.006 | [6] 0 | [7] -0.044 | [8] 0.042 | IRAK-1-4 Inhibitor I 0.105 | ibrutinib 0.019 | [9] -0.016 | ralimetinib 0.057 | [10] -0.194 | [11] 0.057 | [12] -0.04 | [13] 0.031 | [14] 0.081 | [15] -0.01 | [16] 0.011

ATP5F1E (UniProt P56381)
inactive: erlotinib -0.063 | [1] -0.044 | [2] 0.074 | [3] -0.006 | [4] -0.025 | [5] -0.019 | [6] -0.033 | [7] -0.046 | [8] -0.009 | IRAK-1-4 Inhibitor I -0.019 | ibrutinib -0.056 | [9] -0.042 | ralimetinib -0.071 | [10] 0.04 | [11] -0.011 | [12] -0.004 | [13] -0.014 | [14] 0.041 | [15] 0.004 | [16] -0.029

ASDURF (UniProt L0R819)
inactive: erlotinib -0.078 | [1] -0.116 | [2] 0.033 | [3] 0.039 | [4] 0.028 | [5] -0.004 | [6] 0.016 | [7] -0.002 | [8] -0.039 | IRAK-1-4 Inhibitor I -0.009 | ibrutinib -0.014 | [9] -0.005 | ralimetinib -0.001 | [10] -0.002 | [11] -0.05 | [12] -0.003 | [13] -0.055 | [14] -0.024 | [15] 0.055 | [16] -0.002

ATP6V1B2 (UniProt P21281)
inactive: erlotinib -0.015 | [1] -0.029 | [2] 0.022 | [3] -0.005 | [4] -0.016 | [5] 0.026 | [6] 0.005 | [7] -0.046 | [8] -0.012 | IRAK-1-4 Inhibitor I 0.033 | ibrutinib -0.015 | [9] -0.023 | ralimetinib -0.016 | [10] -0.033 | [11] -0.005 | [12] 0.019 | [13] -0.024 | [14] -0.013 | [15] 0.014 | [16] -0.036

ATIC (UniProt P31939)
inactive: erlotinib 0.015 | [1] 0.074 | [2] -0.002 | [3] -0.005 | [4] -0.001 | [5] 0.006 | [6] -0.019 | [7] -0.013 | [8] 0.002 | IRAK-1-4 Inhibitor I 0 | ibrutinib 0.021 | [9] -0.001 | ralimetinib -0.014 | [10] 0.009 | [11] 0.018 | [12] -0.018 | [13] -0.008 | [14] -0.02 | [15] -0.015 | [16] 0.027

ATP13A2 (UniProt Q9NQ11)
inactive: erlotinib 0.013 | [1] 0 | [2] 0 | [3] 0.023 | [4] 0.008 | [5] 0.024 | [6] -0.006 | [7] 0.006 | [8] 0.013 | IRAK-1-4 Inhibitor I 0.078 | ibrutinib 0.003 | [9] 0.016 | ralimetinib 0.025 | [10] -0.062 | [11] 0.004 | [12] -0.053 | [13] 0.031 | [14] -0.044 | [15] -0.016 | [16] 0.023

ATPAF1 (UniProt Q5TC12)
inactive: erlotinib -0.029 | [1] -0.028 | [2] 0.01 | [3] 0.034 | [4] 0.011 | [5] -0.017 | [6] -0.038 | [7] -0.041 | [8] 0.018 | IRAK-1-4 Inhibitor I 0.003 | ibrutinib -0.004 | [9] -0.003 | ralimetinib -0.012 | [10] -0.029 | [11] 0.002 | [12] 0.024 | [13] -0.001 | [14] 0.041 | [15] -0.008 | [16] -0.037

ATP5F1A (UniProt P25705)
inactive: erlotinib -0.027 | [1] -0.023 | [2] 0.011 | [3] 0.001 | [4] 0.003 | [5] -0.016 | [6] 0.005 | [7] 0.022 | [8] -0.008 | IRAK-1-4 Inhibitor I 0.011 | ibrutinib -0.01 | [9] -0.01 | ralimetinib -0.006 | [10] -0.016 | [11] -0.002 | [12] -0.025 | [13] 0.022 | [14] 0.004 | [15] 0.003 | [16] 0

ASB6 (UniProt Q9NWX5)
inactive: erlotinib 0.038 | [1] -0.311 | [2] 0.04 | [3] -0.094 | [4] -0.005 | [5] 0.06 | [6] 0.092 | [7] -0.053 | [8] 0.327 | IRAK-1-4 Inhibitor I 0.002 | ibrutinib -0.04 | [9] -0.087 | ralimetinib 0.027 | [10] -0.013 | [11] 0.001 | [12] -0.13 | [13] -0.007 | [14] 0.055 | [15] -0.052 | [16] 0.01

Two records picked at random from those above, as already listed:
ATP5MC2 isoform 2 (UniProt Q06055)
inactive: erlotinib 0.022 | [1] 0.053 | [2] -0.016 | [3] -0.013 | [4] -0.027 | [5] 0.006 | [6] 0 | [7] -0.044 | [8] 0.042 | IRAK-1-4 Inhibitor I 0.105 | ibrutinib 0.019 | [9] -0.016 | ralimetinib 0.057 | [10] -0.194 | [11] 0.057 | [12] -0.04 | [13] 0.031 | [14] 0.081 | [15] -0.01 | [16] 0.011

ASDURF (UniProt L0R819)
inactive: erlotinib -0.078 | [1] -0.116 | [2] 0.033 | [3] 0.039 | [4] 0.028 | [5] -0.004 | [6] 0.016 | [7] -0.002 | [8] -0.039 | IRAK-1-4 Inhibitor I -0.009 | ibrutinib -0.014 | [9] -0.005 | ralimetinib -0.001 | [10] -0.002 | [11] -0.05 | [12] -0.003 | [13] -0.055 | [14] -0.024 | [15] 0.055 | [16] -0.002

Additional entries follow.

ATG2A isoform 3 (UniProt Q2TAZ0)
inactive: erlotinib 0.044 | [1] 0.089 | [2] -0.103 | [3] -0.041 | [4] -0.041 | [5] -0.011 | [6] -0.033 | [7] 0 | [8] 0.011 | IRAK-1-4 Inhibitor I 0.041 | ibrutinib -0.013 | [9] -0.015 | ralimetinib 0.045 | [10] -0.009 | [11] 0.067 | [12] 0.121 | [13] -0.035 | [14] -0.017 | [15] 0.058 | [16] -0.018

ATP2C1 isoform 7 (UniProt P98194)
inactive: erlotinib -0.043 | [1] -0.005 | [2] -0.027 | [3] -0.243 | [4] 0.002 | [5] -0.034 | [6] -0.253 | [7] -0.198 | [8] 0.044 | IRAK-1-4 Inhibitor I -0.032 | ibrutinib -0.018 | [9] -0.003 | ralimetinib 0.021 | [10] 0.024 | [11] -0.028 | [12] -0.004 | [13] -0.127 | [14] 0.07 | [15] -0.013 | [16] -0.045

ATP6V1E1 (UniProt P36543)
inactive: erlotinib 0.017 | [1] 0.088 | [2] 0.02 | [3] 0.001 | [4] -0.053 | [5] -0.014 | [6] -0.036 | [7] -0.009 | [8] 0.036 | IRAK-1-4 Inhibitor I 0.001 | ibrutinib 0.023 | [9] -0.016 | ralimetinib -0.013 | [10] -0.009 | [11] -0.016 | [12] -0.014 | [13] 0.008 | [14] -0.005 | [15] 0 | [16] -0.015
